Results reported in the supplement of paper PMC12819154, “High-throughput peptide-centric local stability assay extends protein–ligand identification to membrane proteins, tissues and bacteria” (Nature Structural & Molecular Biology, 2025).
This is one part of the list. Most entries show no effect beyond the scatter of the controls.

Amino acid sequences for entries named in this document (tags omitted). A change or cut given only in a name is not applied to a line headed by its entry.
UniProt Q8N0X7: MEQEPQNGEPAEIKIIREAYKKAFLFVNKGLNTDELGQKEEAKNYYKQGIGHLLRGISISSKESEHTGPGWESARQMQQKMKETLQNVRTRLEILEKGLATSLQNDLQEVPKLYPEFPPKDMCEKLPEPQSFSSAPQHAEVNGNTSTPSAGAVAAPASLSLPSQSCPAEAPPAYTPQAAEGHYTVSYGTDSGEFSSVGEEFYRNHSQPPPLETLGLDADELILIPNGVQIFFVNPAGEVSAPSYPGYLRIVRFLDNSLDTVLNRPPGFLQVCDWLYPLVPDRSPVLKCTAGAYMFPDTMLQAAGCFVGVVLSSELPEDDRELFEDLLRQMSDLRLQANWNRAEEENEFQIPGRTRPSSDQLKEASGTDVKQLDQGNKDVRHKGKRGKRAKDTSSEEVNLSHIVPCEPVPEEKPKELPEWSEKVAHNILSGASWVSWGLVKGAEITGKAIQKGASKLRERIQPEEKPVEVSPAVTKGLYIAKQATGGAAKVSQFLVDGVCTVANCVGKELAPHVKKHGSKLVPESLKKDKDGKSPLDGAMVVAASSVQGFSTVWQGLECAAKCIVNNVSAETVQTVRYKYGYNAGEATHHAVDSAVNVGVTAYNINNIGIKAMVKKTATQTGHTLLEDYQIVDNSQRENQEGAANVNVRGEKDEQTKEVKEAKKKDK
UniProt Q86WN1: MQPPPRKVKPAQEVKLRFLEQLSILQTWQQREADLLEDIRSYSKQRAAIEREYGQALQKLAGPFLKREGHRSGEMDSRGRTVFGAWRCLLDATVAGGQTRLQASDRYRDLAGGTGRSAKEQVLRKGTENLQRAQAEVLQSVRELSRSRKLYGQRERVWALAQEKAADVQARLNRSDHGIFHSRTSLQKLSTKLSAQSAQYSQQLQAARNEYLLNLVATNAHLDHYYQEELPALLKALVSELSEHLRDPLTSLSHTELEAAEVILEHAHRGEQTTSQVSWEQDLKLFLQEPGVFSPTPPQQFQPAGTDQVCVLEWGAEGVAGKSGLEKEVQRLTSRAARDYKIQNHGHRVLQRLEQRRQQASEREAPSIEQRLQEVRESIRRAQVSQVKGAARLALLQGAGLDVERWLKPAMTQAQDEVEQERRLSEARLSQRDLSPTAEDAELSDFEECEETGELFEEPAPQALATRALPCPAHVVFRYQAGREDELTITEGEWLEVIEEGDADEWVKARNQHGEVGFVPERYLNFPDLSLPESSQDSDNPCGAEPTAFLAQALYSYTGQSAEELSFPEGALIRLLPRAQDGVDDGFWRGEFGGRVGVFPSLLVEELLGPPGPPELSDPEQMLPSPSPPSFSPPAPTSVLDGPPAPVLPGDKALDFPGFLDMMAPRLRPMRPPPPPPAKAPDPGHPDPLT
UniProt Q8IYJ3: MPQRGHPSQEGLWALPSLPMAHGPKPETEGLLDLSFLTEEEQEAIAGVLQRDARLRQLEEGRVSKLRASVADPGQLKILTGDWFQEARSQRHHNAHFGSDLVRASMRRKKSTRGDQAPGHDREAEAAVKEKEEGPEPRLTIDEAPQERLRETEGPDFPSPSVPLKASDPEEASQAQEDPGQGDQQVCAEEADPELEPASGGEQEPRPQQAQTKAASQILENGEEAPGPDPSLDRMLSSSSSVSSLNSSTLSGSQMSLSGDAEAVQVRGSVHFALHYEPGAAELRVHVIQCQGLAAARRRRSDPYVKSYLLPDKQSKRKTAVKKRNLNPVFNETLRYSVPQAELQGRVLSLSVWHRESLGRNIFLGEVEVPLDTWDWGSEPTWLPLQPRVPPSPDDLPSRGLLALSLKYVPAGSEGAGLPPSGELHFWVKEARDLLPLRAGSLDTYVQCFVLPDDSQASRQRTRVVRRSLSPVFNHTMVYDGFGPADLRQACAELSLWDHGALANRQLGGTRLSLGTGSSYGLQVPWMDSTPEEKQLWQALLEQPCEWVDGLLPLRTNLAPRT
UniProt Q8N2E2: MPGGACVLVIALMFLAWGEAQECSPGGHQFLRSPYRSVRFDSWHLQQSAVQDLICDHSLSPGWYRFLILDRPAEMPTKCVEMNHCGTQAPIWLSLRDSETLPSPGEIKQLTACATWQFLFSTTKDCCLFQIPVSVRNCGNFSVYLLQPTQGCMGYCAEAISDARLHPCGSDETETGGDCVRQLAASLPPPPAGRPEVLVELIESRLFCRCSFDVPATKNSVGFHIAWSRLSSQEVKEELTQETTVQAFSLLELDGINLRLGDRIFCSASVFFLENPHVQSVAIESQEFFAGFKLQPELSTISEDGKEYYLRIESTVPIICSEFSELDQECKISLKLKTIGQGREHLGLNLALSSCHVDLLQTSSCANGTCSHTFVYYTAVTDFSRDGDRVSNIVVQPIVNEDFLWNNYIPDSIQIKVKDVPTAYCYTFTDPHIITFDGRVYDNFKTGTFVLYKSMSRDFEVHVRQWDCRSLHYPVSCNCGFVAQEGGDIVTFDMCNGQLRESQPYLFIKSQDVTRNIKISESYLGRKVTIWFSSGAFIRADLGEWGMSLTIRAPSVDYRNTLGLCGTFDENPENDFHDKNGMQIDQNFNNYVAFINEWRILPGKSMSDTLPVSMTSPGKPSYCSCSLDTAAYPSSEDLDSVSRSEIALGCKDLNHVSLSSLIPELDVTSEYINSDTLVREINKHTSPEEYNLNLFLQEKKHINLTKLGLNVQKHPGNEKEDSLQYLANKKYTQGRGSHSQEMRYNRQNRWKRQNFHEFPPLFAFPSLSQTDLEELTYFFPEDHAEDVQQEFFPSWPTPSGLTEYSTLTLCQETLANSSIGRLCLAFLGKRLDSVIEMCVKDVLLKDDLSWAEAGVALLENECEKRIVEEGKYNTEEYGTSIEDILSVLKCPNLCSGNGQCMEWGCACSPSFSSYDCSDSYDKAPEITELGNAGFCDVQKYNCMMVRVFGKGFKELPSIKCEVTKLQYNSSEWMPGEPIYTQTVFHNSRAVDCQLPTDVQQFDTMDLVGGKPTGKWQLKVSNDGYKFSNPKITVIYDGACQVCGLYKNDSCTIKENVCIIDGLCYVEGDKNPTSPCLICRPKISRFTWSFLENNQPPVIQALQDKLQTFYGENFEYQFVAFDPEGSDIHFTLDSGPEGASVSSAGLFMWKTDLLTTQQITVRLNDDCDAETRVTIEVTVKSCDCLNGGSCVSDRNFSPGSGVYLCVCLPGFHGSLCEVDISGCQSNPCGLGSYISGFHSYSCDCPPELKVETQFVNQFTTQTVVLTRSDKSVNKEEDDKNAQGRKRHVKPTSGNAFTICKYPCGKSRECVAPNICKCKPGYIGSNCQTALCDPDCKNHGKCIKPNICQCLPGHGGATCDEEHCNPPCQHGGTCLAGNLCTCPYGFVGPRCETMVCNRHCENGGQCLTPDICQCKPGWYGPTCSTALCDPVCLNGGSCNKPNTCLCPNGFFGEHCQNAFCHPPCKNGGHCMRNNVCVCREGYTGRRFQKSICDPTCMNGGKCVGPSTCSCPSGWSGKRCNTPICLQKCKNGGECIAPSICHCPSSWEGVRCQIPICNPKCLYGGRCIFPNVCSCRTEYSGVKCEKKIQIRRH
UniProt Q8N1F7: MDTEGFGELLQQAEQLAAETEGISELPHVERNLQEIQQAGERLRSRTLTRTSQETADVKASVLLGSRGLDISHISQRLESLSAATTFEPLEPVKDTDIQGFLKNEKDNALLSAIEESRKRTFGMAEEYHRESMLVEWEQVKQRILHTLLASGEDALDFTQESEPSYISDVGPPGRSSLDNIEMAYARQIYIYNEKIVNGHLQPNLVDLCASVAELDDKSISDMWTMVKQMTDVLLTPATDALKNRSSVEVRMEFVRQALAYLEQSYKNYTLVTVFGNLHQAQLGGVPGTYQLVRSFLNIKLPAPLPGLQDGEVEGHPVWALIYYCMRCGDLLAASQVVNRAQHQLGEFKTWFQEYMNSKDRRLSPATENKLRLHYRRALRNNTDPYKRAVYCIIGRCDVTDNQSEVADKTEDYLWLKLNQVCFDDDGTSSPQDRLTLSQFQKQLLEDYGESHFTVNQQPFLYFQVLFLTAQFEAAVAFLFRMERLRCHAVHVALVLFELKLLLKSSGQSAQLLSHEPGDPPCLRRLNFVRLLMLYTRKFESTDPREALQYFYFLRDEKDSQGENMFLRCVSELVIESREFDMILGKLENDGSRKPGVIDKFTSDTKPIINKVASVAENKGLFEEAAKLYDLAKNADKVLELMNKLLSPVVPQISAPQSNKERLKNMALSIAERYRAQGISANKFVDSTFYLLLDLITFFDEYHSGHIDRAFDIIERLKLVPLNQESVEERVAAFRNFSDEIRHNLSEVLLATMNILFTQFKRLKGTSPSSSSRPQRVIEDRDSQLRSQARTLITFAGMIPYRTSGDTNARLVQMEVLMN
UniProt Q86YV9: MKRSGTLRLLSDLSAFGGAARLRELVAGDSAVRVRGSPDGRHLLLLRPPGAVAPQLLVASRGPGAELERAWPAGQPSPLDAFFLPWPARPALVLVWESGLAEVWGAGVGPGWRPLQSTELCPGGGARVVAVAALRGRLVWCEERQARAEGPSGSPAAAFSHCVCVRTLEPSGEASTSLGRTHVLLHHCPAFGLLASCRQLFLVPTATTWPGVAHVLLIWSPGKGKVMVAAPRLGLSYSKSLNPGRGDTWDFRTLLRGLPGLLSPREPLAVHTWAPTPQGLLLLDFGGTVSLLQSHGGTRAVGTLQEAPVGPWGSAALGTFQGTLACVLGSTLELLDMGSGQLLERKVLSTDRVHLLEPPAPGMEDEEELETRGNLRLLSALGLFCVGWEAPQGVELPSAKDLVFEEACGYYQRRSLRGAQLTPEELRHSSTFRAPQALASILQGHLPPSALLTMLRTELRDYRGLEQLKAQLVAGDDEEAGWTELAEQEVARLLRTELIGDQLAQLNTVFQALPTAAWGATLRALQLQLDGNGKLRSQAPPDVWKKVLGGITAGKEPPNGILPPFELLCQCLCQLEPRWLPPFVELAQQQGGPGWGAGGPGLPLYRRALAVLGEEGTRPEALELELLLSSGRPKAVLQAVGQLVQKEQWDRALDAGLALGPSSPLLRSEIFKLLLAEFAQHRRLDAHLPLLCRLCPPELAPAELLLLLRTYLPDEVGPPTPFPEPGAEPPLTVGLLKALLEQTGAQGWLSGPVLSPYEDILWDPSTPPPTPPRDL
UniProt Q86YH2: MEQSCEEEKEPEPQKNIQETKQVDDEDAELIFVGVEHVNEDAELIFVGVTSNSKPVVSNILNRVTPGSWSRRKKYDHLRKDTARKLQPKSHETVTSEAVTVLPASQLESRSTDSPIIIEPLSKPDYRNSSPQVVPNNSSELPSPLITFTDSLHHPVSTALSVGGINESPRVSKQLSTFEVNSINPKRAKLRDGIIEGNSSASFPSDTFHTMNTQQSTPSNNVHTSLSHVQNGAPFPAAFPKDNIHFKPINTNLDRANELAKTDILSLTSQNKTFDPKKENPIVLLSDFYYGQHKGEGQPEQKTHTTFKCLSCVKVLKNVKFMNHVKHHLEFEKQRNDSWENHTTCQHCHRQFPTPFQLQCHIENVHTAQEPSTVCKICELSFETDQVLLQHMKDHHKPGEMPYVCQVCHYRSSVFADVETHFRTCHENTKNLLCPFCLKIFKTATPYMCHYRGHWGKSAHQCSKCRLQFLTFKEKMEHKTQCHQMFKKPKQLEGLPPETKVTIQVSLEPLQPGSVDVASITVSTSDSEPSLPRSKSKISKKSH

The targets below were run with CN[C@@H]1C[C@H]2O[C@@](C)([C@@H]1OC)n1c3ccccc3c3c4c(c5c6ccccc6n2c5c31)C(=O)NC4 [staurosporine] (assay: log2 fold change of tryptic peptide abundance, ligand vs vehicle (limited proteolysis) (log2 ratio); higher = more trypsin-susceptible (destabilized)). Conditions: ligand concentration: 20 uM; sample: K562 cleared lysate; digestion: 4 min, 22 C (HT-PELSA RT4min, Orbitrap Astral).

Row | Target | log2 fold change
1 | UniProt Q8N0X7 (peptide sequence: LQANWNR, peptide start residue: 335) | 0.231
2 | FCHSD1 (peptide sequence: SDHGIFHSR, peptide start residue: 175) (UniProt Q86WN1) | 0.359
3 | WDFY3 (peptide sequence: AHLQGPLSHPHPNPIEVR, peptide start residue: 3358) (UniProt Q8IZQ1) | 0.376
4 | KMT2E (peptide sequence: HLVNEWLSEKNEK, peptide start residue: 733) (UniProt Q8IZD2) | -0.286
5 | SYTL1 (peptide sequence: GDQAPGHDR, peptide start residue: 114) (UniProt Q8IYJ3) | 0.868
6 | VWDE (peptide sequence: TGTFVLYK, peptide start residue: 446) (UniProt Q8N2E2) | -0.393
7 | NUP93 (peptide sequence: LSPATENKLR, peptide start residue: 363) (UniProt Q8N1F7) | 0.522
8 | HPS6 (peptide sequence: THVLLHHCPAFGLLASCR, peptide start residue: 181) (UniProt Q86YV9) | 0.742
9 | ZNF280B (peptide sequence: VTPGSWSR, peptide start residue: 64) (UniProt Q86YH2) | 0.219
